For at least one compound, name, drawing or mass did not settle the structure.
Assay: Raw material test against sweat odour (masking of malodour standard, assessor panel)
Settings: Table 3 (adequate malodour-reducing action but significant increase in intensity); 1 μl fragrance + 5 μl 3-mercapto-3-methyl-hexan-1-ol (0.1% in DPG) in 7 l air, 15 h; scale 1 to 9, standard = 6

## CC1=CCC(O)(C(C)C)CC1 (centres unmarked) [TERPINE OL, reference compound]
  Increase in intensity: 2.2
  Malodour-reduction value: 2.9

Reference: patent US20070298994A1, “Use of 3-Mercapto-3-Methyl-Hexan-1-Ol for Use as Malodour Standard” (SYMRISE GMBH & CO. KG, priority 2004, published 2007)
